From article PMC7822819, “Discovery of a new class of integrin antibodies for fibrosis” (Scientific Reports, 2021)
These are yes or no findings as the source states them, for the method shown. Some binding calls cover weakened binding; strength is not graded here.

Amino acid sequences for entries named in this document (tags omitted). A change or cut given only in a name is not applied to a line headed by its entry. Residues count along the entry.
UniProt P43406: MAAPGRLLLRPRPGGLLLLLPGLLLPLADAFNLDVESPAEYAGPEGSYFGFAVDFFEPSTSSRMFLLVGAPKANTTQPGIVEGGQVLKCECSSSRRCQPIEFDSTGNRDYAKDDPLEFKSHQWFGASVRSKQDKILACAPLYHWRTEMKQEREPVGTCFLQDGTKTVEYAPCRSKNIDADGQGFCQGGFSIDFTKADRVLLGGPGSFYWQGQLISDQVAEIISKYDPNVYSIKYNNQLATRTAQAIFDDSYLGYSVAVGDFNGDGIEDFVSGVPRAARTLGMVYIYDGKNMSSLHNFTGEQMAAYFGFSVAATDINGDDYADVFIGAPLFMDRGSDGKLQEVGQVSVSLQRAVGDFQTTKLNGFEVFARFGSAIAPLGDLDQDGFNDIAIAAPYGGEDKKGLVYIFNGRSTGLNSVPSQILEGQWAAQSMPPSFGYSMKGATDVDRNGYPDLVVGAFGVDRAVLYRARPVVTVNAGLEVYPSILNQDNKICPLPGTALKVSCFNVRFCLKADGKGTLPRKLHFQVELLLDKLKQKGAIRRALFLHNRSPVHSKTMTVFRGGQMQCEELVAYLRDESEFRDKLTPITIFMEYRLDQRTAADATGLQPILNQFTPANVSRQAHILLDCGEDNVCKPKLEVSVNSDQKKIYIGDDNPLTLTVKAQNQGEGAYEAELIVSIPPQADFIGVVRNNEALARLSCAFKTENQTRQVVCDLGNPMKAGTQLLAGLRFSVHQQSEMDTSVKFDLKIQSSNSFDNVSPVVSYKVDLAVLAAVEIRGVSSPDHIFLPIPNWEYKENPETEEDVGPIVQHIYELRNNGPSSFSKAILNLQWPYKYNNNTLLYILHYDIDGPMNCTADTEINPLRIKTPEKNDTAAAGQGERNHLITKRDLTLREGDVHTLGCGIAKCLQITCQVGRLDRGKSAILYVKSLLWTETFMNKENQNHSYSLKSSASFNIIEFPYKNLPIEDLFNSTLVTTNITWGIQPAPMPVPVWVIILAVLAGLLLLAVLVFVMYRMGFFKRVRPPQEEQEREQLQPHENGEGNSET
UniProt O54890: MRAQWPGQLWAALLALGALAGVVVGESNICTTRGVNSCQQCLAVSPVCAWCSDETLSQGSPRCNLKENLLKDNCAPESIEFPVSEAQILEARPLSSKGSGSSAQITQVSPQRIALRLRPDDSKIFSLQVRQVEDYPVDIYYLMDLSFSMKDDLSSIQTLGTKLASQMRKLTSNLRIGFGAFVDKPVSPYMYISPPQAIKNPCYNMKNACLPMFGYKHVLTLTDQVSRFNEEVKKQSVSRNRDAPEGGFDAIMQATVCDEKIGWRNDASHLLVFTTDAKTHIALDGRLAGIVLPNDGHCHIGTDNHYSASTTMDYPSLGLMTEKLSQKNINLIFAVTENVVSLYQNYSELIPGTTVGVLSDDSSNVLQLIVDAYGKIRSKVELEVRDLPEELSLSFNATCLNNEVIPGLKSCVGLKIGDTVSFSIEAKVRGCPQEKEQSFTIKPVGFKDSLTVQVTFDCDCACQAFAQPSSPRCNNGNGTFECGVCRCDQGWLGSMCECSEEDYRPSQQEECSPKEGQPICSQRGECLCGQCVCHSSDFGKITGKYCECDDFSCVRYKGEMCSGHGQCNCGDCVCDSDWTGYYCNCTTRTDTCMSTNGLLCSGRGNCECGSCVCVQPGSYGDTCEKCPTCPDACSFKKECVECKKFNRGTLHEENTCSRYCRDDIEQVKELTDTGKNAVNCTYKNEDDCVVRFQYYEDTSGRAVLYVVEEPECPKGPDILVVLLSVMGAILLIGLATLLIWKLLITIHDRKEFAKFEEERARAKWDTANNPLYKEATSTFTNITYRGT
UniProt P04004, residues 20-478: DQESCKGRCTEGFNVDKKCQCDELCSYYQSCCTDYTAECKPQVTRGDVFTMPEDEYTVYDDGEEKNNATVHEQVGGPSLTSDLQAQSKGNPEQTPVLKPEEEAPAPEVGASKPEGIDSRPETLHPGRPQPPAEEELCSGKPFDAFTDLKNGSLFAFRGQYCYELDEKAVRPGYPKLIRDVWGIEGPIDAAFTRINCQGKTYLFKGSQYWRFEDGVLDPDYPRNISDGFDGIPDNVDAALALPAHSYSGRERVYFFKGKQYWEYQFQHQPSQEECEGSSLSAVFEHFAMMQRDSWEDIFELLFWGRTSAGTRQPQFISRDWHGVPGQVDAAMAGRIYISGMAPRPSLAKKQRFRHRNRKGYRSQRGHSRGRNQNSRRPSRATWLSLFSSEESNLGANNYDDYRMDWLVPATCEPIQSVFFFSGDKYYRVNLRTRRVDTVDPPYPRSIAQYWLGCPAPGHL

Molecular target: recombinant mouse αvβ3 integrin, extracellular domains (mouse) (UniProt P43406+O54890)
Test: AlphaScreen or HTRF; AlphaLISA integrin-ligand binding assay; recombinant integrin and its ligand with inhibitor, 2 h at room temperature; 25 mM HEPES pH 7.4, 137 mM NaCl, 1 mM MgCl2, 1 mM MnCl2, 2 mM CaCl2, 2.7 mM KCl, 0.05% Tween-20; concentrations in Supplemental Table S3; both purified

- binding: binds
Substance: vitronectin (ligand of the AlphaLISA integrin assays) (from UniProt P04004 20-478)
